Assay results

The results are deposited in PubChem (AID1159506; NCATS, 2015).

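Luminescence from an EWS-FLI1 target-promoter (NR0B1) reporter, set against a CMV-promoter reporter, two days after silencing single genes in TC32 Ewing sarcoma cells.
Each siRNA was applied at 20 nM.
A z-score of the log NR0B1-over-CMV signal, less the median of siRNAs with the same seed; more negative means a stronger specific loss of the NR0B1 reporter.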

This is part of the screen; most of the strongest results are not listed here.
Sequences are the guide (antisense) strand, without overhang.

| Sequence | gene | seed-corrected z-score |
|---|---|---|
| `UUCUCGUUCAGCAUGUUCA` | MYLK3 | -0.2317 |
| `UAACUUUCAGUGAAGAGGU` | VENTX | -0.7218 |
| `UAAGAGAGUACAAUGAGGG` | OR1B1 | 0.1009 |
| `UCGUGAACCAUAUUCUGUC` | ROR2 | -0.03917 |
| `AUGCUUCUCAUAAAUCUGG` | MCM3 | -0.4051 |
| `UUCCUACAACUGUUAUUCC` | TMTC3 | -0.6633 |
| `UAUUGUAACUGCAGCCUAG` | CDKN2AIPNL | -0.4794 |
| `UCAACAUAUCCCGUGAUGG` | BTNL8 | 0.2404 |
| `UGCUAUUCCAAGAUUUGGG` | KIDINS220 | -0.4486 |
| `UAAGUGUAGCUUCCACGCA` | ST3GAL3 | 0.3322 |
| `UCAUCAACAGUCUUGUUUG` | CALB1 | -0.7493 |
| `UCUGUAGUCUGGUUCAUAU` | ANKRD16 | 0.224 |
| `UUUCAGUACACGUAGGGAC` | LIAS | 0.08782 |
| `AUUCUGGUAAGACAGAUGC` | E2F7 | -0.1223 |
| `UUAAUAUCAAGCGAAUAUC` | RNF19A | 0.9547 |
| `UCUCUGACCUCUUUGCACC` | LAT2 | -0.4772 |
| `UUCAGAAUCCGGAUCCUGG` | BPIFB2 | 1.078 |
| `UCAAGAGCAAAAGUGUCAG` | OR4D11 | 1.292 |
| `AAAUGGCUCAGUAUCGUAU` | MT1M | 1.34 |
| `UAAAGGGUUGUAUAGGAUG` | CYR61 | 0.2086 |
| `UUUCCAACCUGUCCAAUCC` | C1orf131 | 0.159 |
| `UAUGGGAUCAGCAUUCUCA` | COQ9 | 0.4035 |
| `AUUAAACCAACGGUUAUUC` | U2AF1 | -1.171 |
| `UAGCAAUCCAGGUAGCUCG` | RAB11FIP2 | -0.2974 |
| `UUAGCUCUCACUUUCUGGA` | TP53AIP1 | 0.09971 |
| `AGUGGGUACUGAAAUAUCU` | FAM26D | -0.6848 |
| `UCCGUGUAAUAGUCUCUGC` | SGCE | -0.609 |
| `UAAGAGAAUGUACCACAGG` | CCDC85A | 0.3432 |
| `UCUGCUCUCACAAGCAAGG` | NPAS1 | -0.9698 |
| `AUCCCUGCAACCACGAUCC` | DNASE1 | -1.982 |
| `UAAGUGCAUAUCUUCUUUA` | ATXN7L1 | 0.4797 |
| `UCAGUGAGACGUUCAGCCU` | SPRR1A | -0.2779 |
| `UCAGGACCGACAGUGCAAC` | GRINA | 1.094 |
| `UGAGAUCUCGAUGAGCUCC` | CABP2 | 0.1411 |
| `AUUAGCACAACAGUUACGC` | ASF1A | 2.201 |
| `UAGCGAUUACAGGACAAUC` | ERP44 | -1.404 |
| `UGGUGUAAAAGCCUUCUGC` | GPM6B | -0.0988 |
| `UUCUUGUUCAGGCAGUACG` | PLCXD1 | 0.7274 |
| `AAUCACUUCAGAGCCCGCC` | XRCC3 | -0.8927 |
| `UAAAUUGCCUUGAUGAUGC` | CPA1 | 0.1918 |
| `AAACUUGUGGUAUCCAUUC` | UBTFL5 | 0.6895 |
| `AAAUUCACCUCUUCGACUC` | CAPN8 | 0.549 |
| `UUGCCGAUCAAUCACAUGC` | VPS8 | -0.3583 |

For reference, 5 entries once more:

{"sequence": "AGUGGGUACUGAAAUAUCU", "gene": "FAM26D", "seed-corrected z-score": "-0.6848"}
{"sequence": "AUUCUGGUAAGACAGAUGC", "gene": "E2F7", "seed-corrected z-score": "-0.1223"}
{"sequence": "UGAGAUCUCGAUGAGCUCC", "gene": "CABP2", "seed-corrected z-score": "0.1411"}
{"sequence": "AUGCUUCUCAUAAAUCUGG", "gene": "MCM3", "seed-corrected z-score": "-0.4051"}
{"sequence": "UAAGUGCAUAUCUUCUUUA", "gene": "ATXN7L1", "seed-corrected z-score": "0.4797"}